These results are taken from doi:10.1101/359182.

Amino acid sequences for entries named in this document (tags omitted). A change or cut given only in a name is not applied to a line headed by its entry.
UniProt Q94JM3: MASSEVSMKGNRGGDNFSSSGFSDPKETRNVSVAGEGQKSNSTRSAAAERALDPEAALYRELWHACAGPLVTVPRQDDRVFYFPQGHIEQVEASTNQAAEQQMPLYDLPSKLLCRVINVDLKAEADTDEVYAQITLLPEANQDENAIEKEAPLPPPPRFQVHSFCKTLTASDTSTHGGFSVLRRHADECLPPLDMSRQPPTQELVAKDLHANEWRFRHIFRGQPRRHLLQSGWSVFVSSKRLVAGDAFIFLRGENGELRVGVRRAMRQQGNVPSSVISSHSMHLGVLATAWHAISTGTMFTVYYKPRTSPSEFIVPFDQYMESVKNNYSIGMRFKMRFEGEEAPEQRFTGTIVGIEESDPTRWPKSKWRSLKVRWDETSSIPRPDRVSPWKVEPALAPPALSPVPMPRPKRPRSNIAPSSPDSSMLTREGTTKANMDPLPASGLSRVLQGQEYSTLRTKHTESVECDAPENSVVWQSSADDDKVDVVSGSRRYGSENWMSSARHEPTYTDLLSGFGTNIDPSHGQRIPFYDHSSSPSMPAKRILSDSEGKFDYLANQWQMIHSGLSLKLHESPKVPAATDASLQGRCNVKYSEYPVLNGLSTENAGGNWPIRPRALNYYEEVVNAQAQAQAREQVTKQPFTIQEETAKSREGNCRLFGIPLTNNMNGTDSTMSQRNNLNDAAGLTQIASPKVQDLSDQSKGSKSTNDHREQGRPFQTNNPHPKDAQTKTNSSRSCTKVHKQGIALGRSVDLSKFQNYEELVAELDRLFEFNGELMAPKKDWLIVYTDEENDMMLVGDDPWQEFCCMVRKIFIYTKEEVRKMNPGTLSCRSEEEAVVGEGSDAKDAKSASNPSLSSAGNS

For at least one entry, the source does not settle the construct or the ends of the probe. A negative result means that nothing was seen under these conditions. At least one verdict was read from the data and is not stated in words by the source. For some of these results: Where a protein sequence is shown, tags need not be part of it. For some of these results: Weaker means in comparison with the reference protein, sequence or condition of that experiment.

In one data set the target is T1, MP (ARF5/Monopteros) (UniProt P93024).
T1 sequence (looked up, limits assumed): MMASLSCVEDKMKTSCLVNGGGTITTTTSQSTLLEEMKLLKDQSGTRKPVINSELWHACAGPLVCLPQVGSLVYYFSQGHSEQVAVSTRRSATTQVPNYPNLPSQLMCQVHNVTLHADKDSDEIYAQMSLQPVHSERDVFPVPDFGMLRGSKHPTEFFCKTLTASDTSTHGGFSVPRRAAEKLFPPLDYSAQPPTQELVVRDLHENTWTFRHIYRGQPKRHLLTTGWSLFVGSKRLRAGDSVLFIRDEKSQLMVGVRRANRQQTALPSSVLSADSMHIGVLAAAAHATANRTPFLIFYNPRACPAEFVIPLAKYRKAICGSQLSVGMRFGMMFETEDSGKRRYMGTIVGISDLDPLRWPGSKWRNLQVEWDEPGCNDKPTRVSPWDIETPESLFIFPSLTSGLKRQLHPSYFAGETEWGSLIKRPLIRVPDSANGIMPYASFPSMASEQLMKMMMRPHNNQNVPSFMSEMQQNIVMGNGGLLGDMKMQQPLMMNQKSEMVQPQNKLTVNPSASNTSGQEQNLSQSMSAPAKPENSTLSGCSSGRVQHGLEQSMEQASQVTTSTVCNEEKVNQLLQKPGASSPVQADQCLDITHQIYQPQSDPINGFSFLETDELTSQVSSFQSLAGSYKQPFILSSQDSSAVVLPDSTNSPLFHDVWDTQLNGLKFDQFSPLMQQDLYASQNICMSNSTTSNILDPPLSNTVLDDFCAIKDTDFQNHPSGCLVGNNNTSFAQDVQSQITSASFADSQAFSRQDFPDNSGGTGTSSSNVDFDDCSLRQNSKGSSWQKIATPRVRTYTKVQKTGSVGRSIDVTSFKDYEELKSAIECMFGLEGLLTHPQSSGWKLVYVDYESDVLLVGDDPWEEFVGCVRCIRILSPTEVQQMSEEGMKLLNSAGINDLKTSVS
Kind of data set: EMSA. In general terms: Mobility shift assays separate free from complexed probe on a gel.

A further data set addresses ARF2 (UniProt Q94JM3). The data set is described as follows: EMSA.

Regarding “GATGCAGTCATGTGCCGACATGTCGGCATGTGCTCACAT (double strand) [IR0]”, in the data set with MP (ARF5/Monopteros), the binding result is “binds more weakly”.
For the sequence “GCAAACTTATGTCTCTCATGTGACCGACAACCGCATC (double strand) [ER8 C/C]”, the binding result with MP (ARF5/Monopteros) and with ARF2 was “binds” in each case.
As to “GCAAACGGGTGTCATTCATGTGAATGACAACCGCATC (double strand) [ER8 WC/WC]”, the binding result in the data set with MP (ARF5/Monopteros) and with ARF2 was “no binding” in each case.
As for “GCAAACTTATGTCTCTCATGTGACCGACCACCGCATC (double strand) [ER8 C/NC]”, the binding result in the data set with MP (ARF5/Monopteros) and with ARF2 was “binds” in each case.
